Measurements: patent publication US8324177B2, “Triterpene compositions and methods for use thereof” (Research Development Foundation, priority 1998, dated 2012)
Marks after values point to notes of the source that are not given here.

Tests used:
[1] = test system: Acacia victoriae shoot tips; assay: Multiple shoot induction in shoot tip cultures
[2] = test system: Acacia victoriae hairy roots; assay: Growth of hairy root cultures in liquid medium

SMILES | Multiple shoots, average ([1]; 1.3 mg/L) [shoots/culture] | Shoot Length ([1]; MS, BA 1.3 mg/L, IAA 0 mg/L) [cm] | Average No. of shoots per shoot tip ([1]; MS, BA 1.3 mg/L, IAA 0 mg/L, 18 replicates + SE) | Growth of hairy roots, fold increase ([2]; carbon source 2% (w/v) in MS medium) [fold] | Fresh weight after 4 weeks ([2]; carbon source 2% W/V in MS medium, initial F.W. 300 mg)
c1ccc(CNc2ncnc3[nH]cnc23)cc1 [BA] | 3.94 | 8.6 ± 3.0258 | 3.94 + 1.846 |  | 
OC[C@H]1O[C@@](CO)(O[C@H]2O[C@H](CO)[C@@H](O)[C@H](O)[C@H]2O)[C@@H](O)[C@@H]1O [sucrose] |  |  |  | 24.52 | 7.356 ± 0.543^c gm
